Reference: PubChem BioAssay AID504764 (Drosophila RNAi Screening Center, 2011)
Assay: 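Knock-downs that raise or lower a Notch target reporter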 (primary screen). System: Drosophila Kc167 cells. Knock-down reagent: long dsRNA against Drosophila genes. Timing: about 5 days (4 days dsRNA, then 24 h after transfection). Challenge: transfection of constitutively active membrane-tethered Notch lacking the extracellular domain, read 24 h later. Read-out: 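Firefly luciferase from an E(spl)m3 reporter with active Notch, plus control-promoter and uninduced reporter wells for normalisation; unnormalised counts, duplicate wells a and b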. Reading the numbers: induced reporter light, run 1, well a and induced reporter light, run 1, well b: higher = more light from the Notch target reporter with active Notch; control promoter light, run 1, well a and control promoter light, run 1, well b: higher = more light from the viral control promoter (cell number, transfection, viability); uninduced reporter light, run 1, well a: higher = more light from the Notch target reporter without active Notch. Call rule: 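Hit if the duplicate-averaged log2 ratio of induced to control-promoter light gives a plate-wise z beyond ±2, or induced to uninduced beyond ±1.8; weak-control or discordant-duplicate wells dropped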. Meaning of the calls: active = modifier hit (raised or lowered Notch signal); inactive = not a hit.
In all, the deposit lists about 22,000 reagents; shown is an unselected part of those that have a named target and a result. Over the whole deposit, 403 (1.9%) were called active. 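Unnormalised raw counts per well; ratio z-scores behind the hit calls and whether each hit raises or lowers signal are not deposited.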 A plus sign joins genes that one reagent is predicted to hit. Not given: the amount of reagent.

target	DRSC id	induced reporter light, run 1, well a	induced reporter light, run 1, well b	control promoter light, run 1, well a	control promoter light, run 1, well b	uninduced reporter light, run 1, well a	call
jim	DRSC11889	1.47e5	1.09e5	58570	66220	8445	inactive
CG18281	DRSC11742	1.22e5	1.44e5	75520	82335	8685	inactive
Daao1	DRSC06131	1.76e5	1.59e5	2.02e5	2.05e5	13320	inactive
Pmvk	DRSC02032	33650	30615	41675	30510	2735	inactive
TwdlF	DRSC12225	1.11e5	1.11e5	80115	61850	10430	inactive
baz	DRSC20309	84885	1.04e5	68155	51080	10850	inactive
Wdfy2	DRSC02822	2.36e5	2.62e5	1.78e5	1.82e5	17845	inactive
CG10973	DRSC09813	93840	1.10e5	91565	47215	9480	inactive
Gk2	DRSC08610	91120	80195	1.66e5	1.92e5	6940	inactive
CG42355	DRSC07967	1.52e5	1.40e5	1.47e5	1.49e5	8650	inactive
CG15143	DRSC02444	1.23e5	1.55e5	1.16e5	1.35e5	11190	inactive
CG14014	DRSC02345	1.61e5	1.76e5	2.12e5	1.77e5	11830	inactive
Tctp	DRSC15649	88095	86095	85325	68945	5455	inactive
TfAP-2	DRSC11601	58615	50520	61025	47745	3175	inactive
RN-tre	DRSC07521	99075	1.07e5	1.10e5	1.19e5	8460	inactive
Ccp84Af	DRSC12591	56665	92255	85235	96165	5785	inactive
HP5	DRSC19773	2.18e5	1.90e5	2.64e5	2.30e5	12845	inactive

Copied from the list.
For “control promoter light, run 1, well b”, HP5 [DRSC19773] shows 2.30e5
jim [DRSC11889], control promoter light, run 1, well a → 58570
Entry for CG42355 [DRSC07967] under “control promoter light, run 1, well b”: 1.49e5
For “call”, Gk2 [DRSC08610] is entered as inactive
TfAP-2 [DRSC11601], induced reporter light, run 1, well b → 50520

The listing continues.
target	DRSC id	induced reporter light, run 1, well a	induced reporter light, run 1, well b	control promoter light, run 1, well a	control promoter light, run 1, well b	uninduced reporter light, run 1, well a	call
CG7974	DRSC08607	1.24e5	1.19e5	1.86e5	2.02e5	10450	inactive
sws	DRSC18843	84405	57255	1.21e5	92830	5150	inactive
Art6	DRSC16583	2.69e5	2.67e5	2.51e5	2.45e5	21035	inactive
Dtd	DRSC15362	94235	1.01e5	93740	83580	5888	inactive
caly	DRSC07182	1.11e5	1.16e5	2.71e5	2.42e5	10560	inactive
CG34199	DRSC05867	76410	83655	1.10e5	99905	6780	inactive
CG8176	DRSC16394	57510	59945	48735	41790	3770	inactive
Vdup1	DRSC08586	1.49e5	1.63e5	1.95e5	2.45e5	9070	inactive
CG7016	DRSC16174	1.57e5	1.82e5	1.94e5	1.91e5	14935	inactive
CG31157	DRSC21832						inactive
prage	DRSC17957	57230	61375	1.10e5	1.06e5	5075	inactive
prage	DRSC17958	42735	66560	17942	24470	6465	inactive
prage	DRSC18490	1.02e5	1.10e5	1.69e5	1.90e5	7632	inactive
prage	DRSC18497	1.07e5	1.17e5	1.65e5	1.69e5	8545	inactive
ETHR	DRSC15915	2.19e5	2.00e5	2.44e5	2.65e5	13588	inactive
Dll	DRSC04610	1.91e5	1.82e5	1.74e5	1.68e5	11450	inactive
CG15393 (retired record)	DRSC00407	1.18e5	1.32e5	97705	55995	7880	inactive
aust	DRSC02558	1.11e5	1.34e5	63545	94515	17310	inactive
Prosbeta4R1	DRSC00502	1.20e5	1.32e5	88625	64750	9175	inactive
Yp3	DRSC20302	58175	65485	86625	99010	13070	inactive
cona	DRSC16281	2.09e5	1.75e5	1.95e5	1.76e5	11575	inactive
CG15202	DRSC19649	1.23e5	1.24e5	2.25e5	2.55e5	10132	inactive
Gip	DRSC18667	1.63e5	1.52e5	2.62e5	2.59e5	13305	inactive
Cpr49Ab	DRSC05341	1.52e5	1.64e5	2.87e5	2.87e5	15520	inactive
CG34168	DRSC01938	1.23e5	1.41e5	1.22e5	1.50e5	10235	inactive
CG12470	DRSC18620	98945	88260	1.81e5	1.67e5	6960	inactive
Mob4	DRSC04993	1.07e5	1.12e5	99155	1.00e5	7955	inactive
TwdlP	DRSC14734	1.90e5	1.72e5	2.56e5	2.18e5	15645	inactive
pnr	DRSC17027	2.09e5	2.61e5	3.10e5	3.01e5	17425	inactive
EDTP	DRSC07409	95950	89040	1.04e5	84720	8628	inactive
Slc25A46a	DRSC20125	1.80e5	1.52e5	2.05e5	1.94e5	10985	inactive
CG14015	DRSC02346	1.96e5	1.96e5	2.39e5	2.45e5	11790	inactive
Vmat + CG13330	DRSC06365	91720	97850	73045	79420	7405	inactive
